Test results published in PMC7046147.
No signal at the amounts used counts as a negative.

Protein sequences, listed by entry. Tags and fused reporters are not part of them. Residues count along the entry.
UniProt P26367, 4-83: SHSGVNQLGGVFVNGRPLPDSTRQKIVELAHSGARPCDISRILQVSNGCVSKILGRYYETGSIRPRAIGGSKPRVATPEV
UniProt P26367, 84-136: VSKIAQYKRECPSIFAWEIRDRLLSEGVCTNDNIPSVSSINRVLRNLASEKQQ

Experiments:
Test in all cases: ITC
[1] = target: PAX6 PAI subdomain with linker (human) (UniProt P26367); details: ITC (iTC200) at 25 °C in buffer C (composition not given; protein stored in 25 mM Hepes pH 7.5, 150 mM NaCl, 5 mM b-ME); 20 uM protein in cell, 200 uM DNA in syringe; recombinant protein; residues 4-83
[2] = target: PAX6 RED subdomain (human) (UniProt P26367); details: ITC (iTC200) at 25 °C in buffer C (composition not given; protein stored in 25 mM Hepes pH 7.5, 150 mM NaCl, 5 mM b-ME); 20 uM protein in cell, 200 uM DNA in syringe; recombinant protein; residues 84-136
[3] = target: PAX6 V84Afs*8 (human) (UniProt P26367); details: ITC (iTC200) at 25 °C in buffer C (composition not given; protein stored in 25 mM Hepes pH 7.5, 150 mM NaCl, 5 mM b-ME); 20 uM protein in cell, 200 uM DNA in syringe; recombinant protein; protein details: N-terminal His6 removed by TEV

Measured: binding result

AAGCATTTTCACGCATGAGTGCACAG / TTCTGTGCACTCATGCGTGAAAATGC [P6B]
no binding: all assays above
